# The other results are listed elsewhere or left out.
# B1: LlpA (Arthrobacter sp) (protein)
# chain: MGSSHHHHHHSSGLVPRGSHMTLHPETALRPGAAATSPNSRYRLLYQTDGNLVLYGPDGPLWDSGTNGHGAGACIMQADGNLVLYGPNDEYVWDTETDNNPGSRLVIQDDGNAVIYRPDGSPLWATETCQPPGSADSHVLQSGSTLTPTHGIRSANGLYGLLYQTDGNLVFYGPDGPLWDSGTNGRGAGACIMQPDGNLVLYGPHDEYVWDTETDNNPGSRLVIQDDGNAVIYRPDGNPTWVTGTH
# Tests used:
# Assay in all cases: glycan array binding signal (z-score within array); higher = stronger binding
# Details in all cases: glycan notation: IUPAC condensed, linker removed
# [1] = biological target: Neu5Ac(a2-6)GlcNAc(b1-4)GlcNAc
# Summary of the method: (§1)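 Glycan array data came from 3228 arrays in the Consortium for Functional Glycomics database, and only arrays with an available protein sequence were kept. Glycan names were put into IUPAC-condensed notation, and columns mapping to the same glycan were averaged. The binding signal is a within-array Z-score, averaged across arrays of one protein sequence run at different concentrations or buffers and across linkers. A negative Z-score can be read as non-binding.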
# [2] = biological target: Neu5Ac(a2-6)GlcNAc(b1-4)GlcNAc(b1-4)GlcNAc
# Summary of the method: as §1
# Neu5Ac(a2-8)Neu5Ac = biological target: Neu5Ac(a2-8)Neu5Ac
# Summary of the method: as §1
# [3] = biological target: Neu5Ac(a2-8)Neu5Ac(a2-3)Gal(b1-3)GalNAc(b1-4)[Neu5Ac(a2-3)]Gal(b1-4)Glc
# Summary of the method: as §1
# [4] = biological target: Neu5Ac(a2-8)Neu5Ac(a2-3)Gal(b1-3)GalNAc(b1-4)[Neu5Ac(a2-8)Neu5Ac(a2-3)]Gal(b1-4)Glc
# Summary of the method: as §1
# [5] = biological target: Neu5Ac(a2-8)Neu5Ac(a2-3)Gal(b1-4)Glc
# Summary of the method: as §1
# [6] = biological target: Neu5Ac(a2-8)Neu5Ac(a2-3)Gal(b1-4)GlcNAc
# Summary of the method: as §1
# [7] = biological target: Neu5Ac(a2-8)Neu5Ac(a2-3)[Gal(b1-3)GalNAc(b1-4)]Gal(b1-4)Glc
# Summary of the method: as §1
# [8] = biological target: Neu5Ac(a2-8)Neu5Ac(a2-3)[GalNAc(b1-4)]Gal(b1-4)Glc
# Summary of the method: as §1
# [9] = biological target: Neu5Ac(a2-8)Neu5Ac(a2-8)Neu5Ac
# Summary of the method: as §1
# [10] = biological target: Neu5Ac(a2-8)Neu5Ac(a2-8)Neu5Ac(a2-3)Gal(b1-4)Glc
# Summary of the method: as §1
# [11] = biological target: Neu5Ac(a2-8)Neu5Ac(a2-8)Neu5Ac(a2-3)[Gal(b1-3)GalNAc(b1-4)]Gal(b1-4)Glc
# Summary of the method: as §1
# [12] = biological target: Neu5Ac(a2-8)Neu5Ac(a2-8)Neu5Ac(a2-3)[GalNAc(b1-4)]Gal(b1-4)Glc
# Summary of the method: as §1
# [13] = biological target: Neu5Ac(a2-8)Neu5Ac(a2-8)Neu5Ac(a2-8)Neu5Ac(a2-3)[GalNAc(b1-4)]Gal(b1-4)Glc
# Summary of the method: as §1
# [14] = biological target: Neu5Ac(a2-8)Neu5Gc(a2-3)Gal(b1-4)GlcNAc
# Summary of the method: as §1
# [15] = biological target: Neu5Ac(b2-6)Gal(b1-4)GlcNAc
# Summary of the method: as §1
# Neu5Ac(b2-6)GalNAc = biological target: Neu5Ac(b2-6)GalNAc
# Summary of the method: as §1
# [16] = biological target: Neu5Ac9Ac(a2-3)Gal(b1-3)GlcNAc
# Summary of the method: as §1
# [17] = biological target: Neu5Ac9Ac(a2-3)Gal(b1-4)GlcNAc
# Summary of the method: as §1
# [18] = biological target: Neu5Ac9Ac(a2-6)Gal(b1-4)GlcNAc
# Summary of the method: as §1
# [19] = biological target: Neu5Gc(a2-3)Gal(b1-3)GlcNAc
# Summary of the method: as §1
# [20] = biological target: Neu5Gc(a2-3)Gal(b1-3)[Fuc(a1-4)]GlcNAc
# Summary of the method: as §1
# Neu5Gc(a2-3)Gal(b1-4)Glc = biological target: Neu5Gc(a2-3)Gal(b1-4)Glc
# Summary of the method: as §1
# [21] = biological target: Neu5Gc(a2-3)Gal(b1-4)GlcNAc
# Summary of the method: as §1
# [22] = biological target: Neu5Gc(a2-3)Gal(b1-4)GlcNAc(b1-3)Gal(b1-4)GlcNAc(b1-2)Man(a1-3)[Neu5Gc(a2-3)Gal(b1-4)GlcNAc(b1-3)Gal(b1-4)GlcNAc(b1-2)Man(a1-6)]Man(b1-4)GlcNAc(b1-4)GlcNAc
# Summary of the method: as §1
# [23] = biological target: Neu5Gc(a2-3)Gal(b1-4)[Fuc(a1-3)]GlcNAc
# Summary of the method: as §1
# [24] = biological target: Neu5Gc(a2-6)Gal(b1-4)GlcNAc
# Summary of the method: as §1
# Neu5Gc(a2-6)GalNAc = biological target: Neu5Gc(a2-6)GalNAc
# Summary of the method: as §1
# [25] = biological target: Neu5Gc(a2-8)Neu5Ac(a2-3)Gal(b1-4)GlcNAc
# Summary of the method: as §1
# [26] = biological target: Neu5Gc(a2-8)Neu5Gc(a2-3)Gal(b1-4)GlcNAc
# Summary of the method: as §1
# [27] = biological target: Neu5Gc(a2-8)Neu5Gc(a2-3)Gal(b1-4)GlcNAc(b1-3)Gal(b1-4)GlcNAc
# Summary of the method: as §1
# [28] = biological target: Neu5Gc(a2-8)Neu5Gc(a2-6)Gal(b1-4)GlcNAc
# Summary of the method: as §1
# [29] = biological target: Neu5Gc(b2-6)Gal(b1-4)GlcNAc
# Summary of the method: as §1
binder,measurement,setting,value
B1,glycan array binding signal (z-score),[1],-0.282
same,glycan array binding signal (z-score),[2],0.042
same,glycan array binding signal (z-score),Neu5Ac(a2-8)Neu5Ac,0.238
same,glycan array binding signal (z-score),[3],-0.983
same,glycan array binding signal (z-score),[4],1.98
same,glycan array binding signal (z-score),[5],-0.46
same,glycan array binding signal (z-score),[6],-1.88
same,glycan array binding signal (z-score),[7],0.321
same,glycan array binding signal (z-score),[8],1.24
same,glycan array binding signal (z-score),[9],0.275
same,glycan array binding signal (z-score),[10],1.1
same,glycan array binding signal (z-score),[11],-0.934
same,glycan array binding signal (z-score),[12],0.267
same,glycan array binding signal (z-score),[13],0.355
same,glycan array binding signal (z-score),[14],-1.81
same,glycan array binding signal (z-score),[15],-0.113
same,glycan array binding signal (z-score),Neu5Ac(b2-6)GalNAc,-0.109
same,glycan array binding signal (z-score),[16],-0.491
same,glycan array binding signal (z-score),[17],-1.33
same,glycan array binding signal (z-score),[18],0.62
same,glycan array binding signal (z-score),[19],-0.252
same,glycan array binding signal (z-score),[20],-0.273
same,glycan array binding signal (z-score),Neu5Gc(a2-3)Gal(b1-4)Glc,-0.925
same,glycan array binding signal (z-score),[21],-0.467
same,glycan array binding signal (z-score),[22],-0.31
same,glycan array binding signal (z-score),[23],-0.541
same,glycan array binding signal (z-score),[24],-0.005
same,glycan array binding signal (z-score),Neu5Gc(a2-6)GalNAc,0.635
same,glycan array binding signal (z-score),[25],-0.504
same,glycan array binding signal (z-score),[26],-0.336
same,glycan array binding signal (z-score),[27],-1.14
same,glycan array binding signal (z-score),[28],0.339
same,glycan array binding signal (z-score),[29],0.561

# Reprinted at random: 2 entries already listed, in no set order.
binder,measurement,setting,value
B1,glycan array binding signal (z-score),[3],-0.983
same,glycan array binding signal (z-score),[26],-0.336

# Reference: the supplement of paper PMC8728848
